Results on one substance are retold here after paper PMC6329818.

Chains of the proteins cited; added tags and fusions are not shown. Lines headed by an entry give the natural chain unless they say otherwise; changes in a name come on top.
UniProt Q9V5M3: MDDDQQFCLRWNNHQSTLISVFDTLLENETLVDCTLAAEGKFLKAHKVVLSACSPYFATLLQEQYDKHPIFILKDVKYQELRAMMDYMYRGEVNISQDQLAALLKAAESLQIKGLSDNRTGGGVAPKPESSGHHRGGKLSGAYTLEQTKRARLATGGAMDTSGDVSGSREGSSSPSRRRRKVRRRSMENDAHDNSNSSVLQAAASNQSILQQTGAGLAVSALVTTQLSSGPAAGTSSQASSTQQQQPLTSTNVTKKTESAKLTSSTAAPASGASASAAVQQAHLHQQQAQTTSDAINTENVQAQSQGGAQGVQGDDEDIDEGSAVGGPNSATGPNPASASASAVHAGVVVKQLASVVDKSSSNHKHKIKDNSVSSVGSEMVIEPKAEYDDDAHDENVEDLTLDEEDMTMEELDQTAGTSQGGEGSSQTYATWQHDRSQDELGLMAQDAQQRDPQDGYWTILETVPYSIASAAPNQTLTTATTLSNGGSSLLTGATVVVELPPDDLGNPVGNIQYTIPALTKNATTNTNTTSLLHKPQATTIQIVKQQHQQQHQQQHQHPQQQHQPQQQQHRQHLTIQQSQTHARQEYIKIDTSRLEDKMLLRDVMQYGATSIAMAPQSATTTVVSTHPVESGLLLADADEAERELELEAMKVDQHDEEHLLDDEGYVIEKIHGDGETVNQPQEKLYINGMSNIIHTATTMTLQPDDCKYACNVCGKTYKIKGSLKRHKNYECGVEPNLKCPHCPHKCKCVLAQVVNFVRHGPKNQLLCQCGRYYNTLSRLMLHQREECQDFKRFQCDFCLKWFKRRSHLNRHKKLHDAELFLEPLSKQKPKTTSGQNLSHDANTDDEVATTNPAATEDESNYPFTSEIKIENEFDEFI
UniProt Q24311: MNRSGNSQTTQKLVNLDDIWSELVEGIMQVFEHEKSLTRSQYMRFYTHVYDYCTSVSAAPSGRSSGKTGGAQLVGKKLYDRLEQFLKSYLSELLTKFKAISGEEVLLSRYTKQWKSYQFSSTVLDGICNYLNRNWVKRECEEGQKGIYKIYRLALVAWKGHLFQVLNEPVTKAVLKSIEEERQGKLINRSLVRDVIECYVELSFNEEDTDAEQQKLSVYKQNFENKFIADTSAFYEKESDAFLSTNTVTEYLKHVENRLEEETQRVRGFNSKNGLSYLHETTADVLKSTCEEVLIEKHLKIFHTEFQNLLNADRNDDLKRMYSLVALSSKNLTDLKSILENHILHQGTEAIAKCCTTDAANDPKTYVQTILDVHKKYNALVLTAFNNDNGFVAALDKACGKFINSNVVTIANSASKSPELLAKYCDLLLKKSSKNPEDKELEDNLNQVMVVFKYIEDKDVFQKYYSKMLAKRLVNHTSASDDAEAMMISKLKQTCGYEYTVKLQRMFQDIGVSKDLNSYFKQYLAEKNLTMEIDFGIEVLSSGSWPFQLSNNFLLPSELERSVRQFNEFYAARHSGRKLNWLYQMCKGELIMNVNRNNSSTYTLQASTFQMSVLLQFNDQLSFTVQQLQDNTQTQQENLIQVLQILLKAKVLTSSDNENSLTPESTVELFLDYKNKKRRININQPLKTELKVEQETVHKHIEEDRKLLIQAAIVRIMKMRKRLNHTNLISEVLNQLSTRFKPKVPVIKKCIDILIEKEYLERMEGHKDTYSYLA

These are yes or no findings as the source states them, for the method shown. In cells and extracts the contact can be indirect. Here binding means that the protein was enriched with, or labelled near, the bait; the list need not be complete.

The test concerns the target HA-Lola29M[Δ1-150]-V5 (Drosophila melanogaster) (UniProt Q9V5M3). Nature of the test: affinity purification with mass spectrometry; HA-Lola29M[Δ1-150]-V5 expressed in S2 cells, immuno-purified with anti-V5-tag magnetic beads, trypsinized, LC-MS/MS.

With “Cullin1 (Cul1), E3 ubiquitin ligase (from UniProt Q24311 1-774)”, the binding result is recorded as “binds”.
